In one assay the target is VEGF. Put plainly: phage ELISA, antigen coated, anti-M13-HRP. A general note: An ELISA detects its analyte on a solid surface through an enzyme-linked reagent.
The next assay concerns the target TNF. Put plainly: phage ELISA, antigen coated, anti-M13-HRP.

Here are results for one molecule from patent US20150274828A1 (SHANGHAI SERUM BIOTECHNOLOGY, published 2015).

Results are given in words; binding and its absence hold for the method and conditions named.

B1: Ame55 phage single chain antibody (scFv)
scFv: SYELTQPPSVSVAPGQTARITCSGDALGDKYASWYQQKPGQAPVLVIYEDSKRPSGIPERFSGSNSGNTATLTISGTQAEDEADYYCSVWDGDWGMPVFGGGTKLTVLGSGGSTITSYNVYYTKLSSSGSEVQLVQSGAEVKKPGESLKISCKGSGYSFTSYWIGWVRQMPGKGLEWMGIIYPGDSDTRYSPSFQGQVTISADKSISTAYLQWSSLKASDTAMYYCARGIIYPSNVAVWGQGTLVTVSS
notes: the phage coat fusion is not described; also called Ame55 phage antibody; Ame55 single chain antibody
For B1, the binding result in the assay with VEGF and with TNF was “no binding” throughout.
